# The list shows a part of the results. Shown are side measurements of this screen, not its main read-out; they come without a call. Compounds called inactive in the main read-out are mostly missing here. The note in brackets gives the kind of curve behind each potency; many fits are weak.
# Test: qHTS Assay to Find Inhibitors of Chronic Active B-Cell Receptor Signaling
# Conditions: ABC-DLBCL IkBa-CBG/CBR reporter, luminescence ratio (green luciferase fused to IkBa over red control in TMD8 lymphoma cells), 4 h
# Outline: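 TMD8 human ABC-DLBCL cells with doxycycline-inducible IκBα–green luciferase fusion and unfused red luciferase, in 0.5% FBS medium; compounds up to 46 uM, 4 h at 37C. Green/red luminescence ratio, filter-overlap corrected, fitted to concentration-response curves.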
# [1] = measured here: CBR red luminescence, cell number
# [2] = measured here: IkBa-CBG green luminescence
Structure (SMILES),AC50 [1],AC50 [2]
O=C1c2ccc3c4c(ccc(c24)C(=O)N1CCCCO)C(=O)N(CCCCO)C3=O,"8.91 µM [falling, partial curve, poor fit]","6.31 µM [rising, partial curve, poor fit]"
O=C(Cc1c(F)cccc1Cl)Nc1nc2ccccc2s1,"15.8 µM [falling, single point]",
COc1cccc(N2CCN(C(=O)CC(NC(=O)c3ccccc3)c3ccccc3)CC2)c1 (centres undefined),"23.1 µM [rising, single point]",
Cc1ccc(NC(=O)c2snc3c(=O)[nH]cnc23)cc1C,"2.06 µM [rising, partial curve, poor fit]",
COc1cc(OC)c2c(-c3ccccc3)cc(=O)oc2c1C(CCN1CCOCC1)c1ccc2c(c1)OCO2 (centres undefined),"29.1 µM [falling, single point]","10.3 µM [falling, partial curve, poor fit]"
CSC1=NCCN1C(=O)c1c(F)cccc1F,"29.1 µM [rising, single point]",
CC(C)COC(=O)c1ccc(NC(=O)C2C3CCC(C3)C2C(=O)O)cc1 (centres undefined),"2 µM [rising, full curve, poor fit]",
O=c1c(-c2nc3ccccc3o2)c2oc3ccccc3n2c2ccccc12,"29.1 µM [rising, single point]",
COc1ccc(CCNc2cc(C)nc3c(-c4ccccc4)cnn23)cc1OC,"32.6 µM [falling, single point]","20.6 µM [rising, partial curve, poor fit]"
N#Cc1ccccc1NC(=O)CSC1=Nc2ccccc2C2CC=NN12 (centres undefined),,"22.4 µM [falling, single point]"
CCOc1ccc(NC(=O)CN(C)C(=O)c2ccc(OCc3ccccc3)c(OC)c2)cc1OCC,"5.8 µM [falling, full curve, poor fit]",
CC(C)c1ccc(NC(=O)/C(C#N)=C/c2ccncc2)cc1,"2.82 µM [rising, full curve, poor fit]",
Cc1ccc(NC(=O)C(=O)NCc2ccncc2)cc1,"11.2 µM [falling, partial curve, poor fit]",
CCc1cc(Cn2nc(-c3ccccc3)cc2C(=O)NCC2CC2)on1,"18.4 µM [rising, partial curve]",
Fc1ccc(C2CC(c3ccco3)=Nc3ccccc3S2)cc1 (centres undefined),"12.6 µM [falling, single point]",
C=CCn1c(SCc2ccccc2)nnc1-c1cccnc1,"0.82 µM [rising, full curve]",
CC(=O)Nc1ccc(C(=O)OCCc2ccccc2)cc1,"0.562 µM [rising, full curve, poor fit]",
C/C=C/c1ccc(OCCOc2cccc3cccnc23)c(OC)c1,"5.17 µM [rising, partial curve]",
O=C(NCCc1ccccc1)C1CCN(S(=O)(=O)N2CCCC2)CC1,"16.4 µM [rising, single point]",
CN(C)c1ccc(CNn2cnnc2SCc2ccc(F)cc2)cc1,"0.82 µM [falling, partial curve, poor fit]",
Cc1ccc2nc(NC(=O)C3CC3C)sc2c1 (centres undefined),"11.2 µM [falling, partial curve]",

# Shown with bars between the fields: part of the list above
Structure (SMILES) | AC50 [1] | AC50 [2]
Cc1ccc(NC(=O)C(=O)NCc2ccncc2)cc1 | 11.2 µM [falling, partial curve, poor fit] | 
CCc1cc(Cn2nc(-c3ccccc3)cc2C(=O)NCC2CC2)on1 | 18.4 µM [rising, partial curve] | 
Fc1ccc(C2CC(c3ccco3)=Nc3ccccc3S2)cc1 (centres undefined) | 12.6 µM [falling, single point] | 
C=CCn1c(SCc2ccccc2)nnc1-c1cccnc1 | 0.82 µM [rising, full curve] | 
CC(=O)Nc1ccc(C(=O)OCCc2ccccc2)cc1 | 0.562 µM [rising, full curve, poor fit] | 
C/C=C/c1ccc(OCCOc2cccc3cccnc23)c(OC)c1 | 5.17 µM [rising, partial curve] | 
O=C(NCCc1ccccc1)C1CCN(S(=O)(=O)N2CCCC2)CC1 | 16.4 µM [rising, single point] | 

# Following part:

Structure (SMILES),AC50 [1],AC50 [2]
NC(=S)N/N=C1\CC(c2ccc3c(c2)OCCO3)Oc2ccc(F)cc21 (centres undefined),"12.6 µM [falling, single point]",
CCOC(=O)C1=CN(Cc2cccc(-c3cccnc3)c2)S(=O)(=O)N(CC)C1C (centres undefined),"2.59 µM [rising, partial curve, poor fit]",
N=c1oc2ccccc2cc1C(=O)Nc1ccccc1,"0.501 µM [falling, partial curve, poor fit]",
COc1ccccc1NC(=O)CSc1nc2sc(C)c(C)c2c(=O)n1Cc1ccco1,"11.2 µM [falling, partial curve, poor fit]",
COc1ccc(Cn2c(CCC(=O)Nc3ccccc3OC)nc3cccnc32)cc1,"35.5 µM [falling, partial curve, poor fit]",
O=C(/C=C/c1ccco1)Oc1cc(Br)cc(/C=N/NC(=O)c2ccccc2O)c1,"5.8 µM [falling, partial curve]",
Nc1nc(-c2ccc3c(c2)CCCC3)cs1,"3.16 µM [rising, partial curve, poor fit]",
Cc1cc(C)c(NC2=NCC(=O)N2C2CCCCC2)c(C)c1,"7.31 µM [rising, partial curve, poor fit]",
CCNc1nc(NCc2ccccc2)nc(Oc2ccc(=O)[nH]n2)n1,"4.61 µM [rising, full curve, poor fit]",
COc1cccc(NCc2cc(=O)oc3cc(-c4ccccc4)c(O)cc23)c1,"29.1 µM [falling, single point]",
Oc1cccc(Nc2nc(-c3ccccc3Cl)nc3ccccc23)c1,"12.6 µM [falling, partial curve]",
Cc1ccnc2nc(C(=O)OCCOc3ccc(Cl)cc3)nn12,"25.1 µM [falling, single point]",
COC(=O)c1nc(-n2nc(C)cc2C)ccc1Cl,"3.26 µM [falling, single point]",
O=C(CSc1n[nH]c(-c2cccs2)n1)N1CCOCC1,"13 µM [rising, partial curve, poor fit]",
CC(=O)N1C=CN(C(C)=O)C(c2cn(C)c3ccccc23)C1c1cn(C)c2ccccc12 (centres undefined),"6.51 µM [rising, single point]",
COC(/C=C/Nc1ccc(C)cc1)=C(C#N)C#N,"0.146 µM [rising, full curve, poor fit]",
CC1(C2CC2)NC(=O)N(CC(=O)N2CCN(c3ccccc3)CC2)C1=O (centres undefined),"29.1 µM [rising, single point]",
Cc1cccnc1Nc1nc(-c2ccc(F)cc2)cs1,"12.6 µM [falling, single point]",
CC(/C=C/C=C/c1ccccc1)=N/NC(=O)c1ccc2c(c1)OCCO2,"35.5 µM [falling, single point]",
CCN(CC)CCNC(=O)c1ccc2c(=O)n3nc(Nc4ccccc4)sc3nc2c1,"8.91 µM [falling, partial curve]",
